Data: PubChem BioAssay AID1439 (NMMLSC, 2008)
The whole screen tested about 220,000 compounds, of which about 770 (0.35%) were called active. This list was built around the results that the source calls inconclusive (neither active nor inactive); the mix of calls is not that of the screen. Cut-off read from the data, not from the text of the source: active = binding response below about 49% or above about 150%; inconclusive = no clear call, values can overlap the other calls; inactive = in between.

By UniProt entry, the sequences of proteins in these tests, tags left out.
UniProt P09471, whole entry, looked up: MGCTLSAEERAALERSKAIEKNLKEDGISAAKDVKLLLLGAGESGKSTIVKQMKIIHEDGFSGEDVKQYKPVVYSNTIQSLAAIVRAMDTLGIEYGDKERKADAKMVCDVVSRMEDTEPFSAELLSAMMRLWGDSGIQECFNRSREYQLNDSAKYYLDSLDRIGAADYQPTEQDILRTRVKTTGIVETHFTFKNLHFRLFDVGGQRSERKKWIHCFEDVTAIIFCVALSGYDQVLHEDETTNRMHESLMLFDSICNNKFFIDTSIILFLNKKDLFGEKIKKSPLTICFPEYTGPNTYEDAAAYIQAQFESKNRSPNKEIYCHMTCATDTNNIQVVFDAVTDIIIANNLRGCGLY

Target: Guanine nucleotide-binding protein G(o) subunit alpha (Homo sapiens) (UniProt P09471)
Assay: RGS7-Galphao binding modulators, primary screen, biochemical, multiplexed bead flow cytometry (AID 1439);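 note: fluorescent Galphao held in activated GDP-AlF4 state binding bead-coupled RGS7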
Settings: at 10 µM, actives lie on both sides

| SMILES | binding response (% of control) |
| --- | --- |
| O=C(NS(=O)(=O)c1ccc2c(c1)OCCO2)c1ccccc1 | inactive: 95.1% |
| CCN(CC)S(=O)(=O)c1ccc(O)c(NC(=O)CN2CCc3ccccc3C2)c1 | inconclusive: 102% |
| CNC(=O)c1ccsc1NC(=O)c1ccccc1 | inconclusive: 95.2% |
| Cc1ccc(/C=N/Nc2cc(C)nc(NCc3ccccc3)n2)cc1 | inconclusive: 77.6% |
| Cc1ccc(C(=O)Nc2ccc(SC(F)F)cc2)s1 | inconclusive: 101% |
| O=C(CCS(=O)(=O)c1cccc2nonc12)NCc1ccc(Cl)cc1 | inconclusive: 118% |
| CCCN1CCN(CCCNC(=O)CCNC(=O)Cn2ccc3ccccc3c2=O)CC1 | inactive: 105% |
| Fc1cccc(CSc2nnc3c(n2)[nH]c2ccccc23)c1 | inconclusive: 46.9% |
| CC(C(=O)NNS(=O)(=O)c1cccc(C(F)(F)F)c1)n1nnc(N2CCOCC2)n1 (stereo not given) | inconclusive: 150% |
| CCOC(=O)CCCNC(=O)CCNC(=O)c1ccc(OC(C)C)cc1 | inactive: 102% |
| O=C(Nc1cc(-c2ccccc2)[nH]n1)c1ccccc1 | inconclusive: 87.4% |
| CCn1c(C)nc2cc(C(=O)NNC(=S)Nc3ccccc3OC)ccc21 | inconclusive: -17.4% |
| CCOC(=O)C(=O)NNc1ccc(F)cc1 | inconclusive: 51.9% |
| CCSCCc1nnc(NC(=O)Nc2cccc(C(F)(F)F)c2)s1 | inactive: 99.9% |
| O=C(NCc1csc(-c2cccs2)n1)c1cccc(Cl)c1 | inconclusive: 67.5% |
| Cc1oc2c(C)c3oc(=O)c4c(c3cc2c1C)CCCC4 | inactive: 98% |
| Cc1noc(C)c1COC(=O)COc1ccc(-c2ccccc2)cc1 | inconclusive: 94.4% |
| O=C(NC(=S)Nc1cccnc1Cl)c1ccco1 | inconclusive: 107% |
| CC(C)OCCCNC(=O)NC(=O)c1ccc(Cl)cc1 | inactive: 98.4% |
| Oc1c(Cl)cc(Cl)cc1/C=N/NC(=S)NC1CC2C=CC1C2 (stereo not given) | inconclusive: 26.7% |
| CCCCNC(=O)C1CC(c2cccc(F)c2)=NO1 (stereo not given) | inconclusive: 78.3% |
| NC(=O)NC(Cc1ccccc1)C(=O)Nc1ccc(S(N)(=O)=O)cc1 (stereo not given) | inactive: 103% |
| CCOc1ccc(-n2ccnc2)nn1 | inconclusive: 98% |

| SMILES | binding response (% of control) |
| --- | --- |
| C/C(CC(=O)Nc1ccc(Br)cc1)=N\NC(=O)Cc1csc(N)n1 | inconclusive: 83% |
| COc1cccc(/C=C/C(=O)NCc2ccc(S(N)(=O)=O)cc2)c1 | inconclusive: 188% |
| COc1ccccc1N1CCN(S(=O)(=O)c2c(C)[nH]c(=O)[nH]c2=O)CC1 | inactive: 97.4% |
| COc1ccc(CN2CCOCCOCCOCC2)cc1 | inconclusive: 91.9% |
| Cc1ccc(NC(=O)CSc2ncc3ccccn23)cc1 | inconclusive: 98.6% |
| OCCNC(=S)c1ccccc1 | inconclusive: 116% |
| CC(=O)c1ccc(N2CCN(c3ccc(S(=O)(=O)NCCCN(C)C)cc3[N+](=O)[O-])CC2)cc1 | inconclusive: 95.5% |
| COc1cc(CNCc2ccccc2)cc(Cl)c1OC | inconclusive: 99.5% |
| O=C(c1ccccc1)C1CCN(c2ncccc2[N+](=O)[O-])CC1 | inconclusive: 53.4% |
| COc1ccc([C@@H]2OC2(C(N)=O)C(N)=O)cc1 | inconclusive: 110% |
| CC1(C)COCN1C(=O)c1ccc(Cl)c(Cl)c1 | inconclusive: 131% |
| O=C(O)c1[nH]c2ccccc2c1CC(=O)N1CCN(c2ccccc2)CC1 | inconclusive: 104% |
| COc1cc(OC)cc(C(=O)NCC(=O)OCC(=O)N2c3ccccc3NC(=O)C2(C)C)c1 | inconclusive: 90.4% |
| CCSc1nnc(NC(=O)[C@H](C)NC(=O)c2ccccc2Cl)s1 | inconclusive: 103% |
| O=C(CC1SC(=O)N(c2ccccc2)C1=O)Nc1ccc(Cl)cc1 (stereo not given) | inconclusive: 123% |
| Cc1ccc(C)n1-c1nn(S(=O)(=O)c2ccccc2)c2cccc(F)c12 | inconclusive: 104% |
| COc1ccc(C(=O)c2c[nH]c(C(=O)N=CN(C)C)c2)cc1 | inconclusive: 113% |
| FC(F)(F)c1cnc(COc2cc(Cl)cc(Cl)c2)c(Cl)c1 | inconclusive: 95.9% |
| COc1ccc2nc(NC(=O)CC3Oc4ccccc4NC3=O)sc2c1 (stereo not given) | inconclusive: 68.9% |
| Cc1cccc(NC(=O)COc2ccc(/C=N\n3cnnc3)cc2)c1 | inactive: 99.6% |
| O=[N+]([O-])c1cc(-c2nnc(N3CCOCC3)c3ccccc23)ccc1N1CCOCC1 | inconclusive: 86.1% |
| CCSc1nc(C)nc2sc(C)c(C)c12 | inconclusive: 107% |

Structures listed so far that have a furan ring, fused or not, in the order listed:

| SMILES | binding response (% of control) |
| --- | --- |
| Cc1oc2c(C)c3oc(=O)c4c(c3cc2c1C)CCCC4 | inactive: 98% |
| O=C(NC(=S)Nc1cccnc1Cl)c1ccco1 | inconclusive: 107% |
